Assay results: the supplement of paper PMC7666118
The other results are listed elsewhere or left out.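 Rule for the calls: active = dose-dependent thermal stabilisation significant by F-test of dose-response against flat model at 10% FDR; inactive = not significant.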

By UniProt entry, the sequences of proteins in these tests, tags left out. Where a name states a change or a piece, a line headed by the entry shows the natural chain unless it says otherwise.
UniProt P04075: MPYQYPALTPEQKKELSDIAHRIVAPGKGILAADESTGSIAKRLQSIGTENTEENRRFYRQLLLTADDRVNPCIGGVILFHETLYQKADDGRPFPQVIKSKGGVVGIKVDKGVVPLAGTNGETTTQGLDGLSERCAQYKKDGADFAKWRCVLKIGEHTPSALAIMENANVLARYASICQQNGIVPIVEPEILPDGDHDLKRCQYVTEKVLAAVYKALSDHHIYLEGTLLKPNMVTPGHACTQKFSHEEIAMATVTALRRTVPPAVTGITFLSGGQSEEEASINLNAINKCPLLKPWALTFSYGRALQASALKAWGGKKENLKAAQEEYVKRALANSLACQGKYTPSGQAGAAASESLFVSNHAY
UniProt P80404: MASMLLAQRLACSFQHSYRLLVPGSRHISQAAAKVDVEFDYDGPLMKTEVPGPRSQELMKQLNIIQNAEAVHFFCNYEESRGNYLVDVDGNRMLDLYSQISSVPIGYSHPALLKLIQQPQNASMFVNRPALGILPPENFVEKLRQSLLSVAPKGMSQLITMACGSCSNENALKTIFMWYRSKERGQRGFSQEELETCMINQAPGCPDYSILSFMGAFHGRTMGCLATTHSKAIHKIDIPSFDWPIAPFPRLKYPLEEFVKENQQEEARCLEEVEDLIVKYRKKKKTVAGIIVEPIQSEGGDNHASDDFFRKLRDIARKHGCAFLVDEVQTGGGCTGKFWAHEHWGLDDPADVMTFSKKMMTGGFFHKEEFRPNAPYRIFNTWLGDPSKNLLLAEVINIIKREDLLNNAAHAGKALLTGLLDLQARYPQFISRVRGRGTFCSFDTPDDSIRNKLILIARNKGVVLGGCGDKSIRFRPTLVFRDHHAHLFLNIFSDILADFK
UniProt Q4G176: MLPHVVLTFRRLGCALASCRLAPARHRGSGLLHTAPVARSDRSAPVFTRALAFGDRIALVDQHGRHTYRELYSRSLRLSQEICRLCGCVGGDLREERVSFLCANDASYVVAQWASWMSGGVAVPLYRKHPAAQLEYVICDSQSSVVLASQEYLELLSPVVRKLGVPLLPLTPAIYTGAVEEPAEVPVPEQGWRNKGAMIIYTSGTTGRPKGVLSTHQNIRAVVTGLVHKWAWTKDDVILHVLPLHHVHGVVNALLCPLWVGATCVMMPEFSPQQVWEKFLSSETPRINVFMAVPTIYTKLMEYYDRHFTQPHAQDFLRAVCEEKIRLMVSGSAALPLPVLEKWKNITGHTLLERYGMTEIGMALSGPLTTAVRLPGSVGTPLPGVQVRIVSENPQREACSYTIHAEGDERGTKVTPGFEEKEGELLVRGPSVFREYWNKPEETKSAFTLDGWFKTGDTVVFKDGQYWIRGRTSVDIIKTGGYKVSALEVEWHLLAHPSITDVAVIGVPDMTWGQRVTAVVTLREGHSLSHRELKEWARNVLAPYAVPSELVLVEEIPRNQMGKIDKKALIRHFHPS
UniProt Q9UPM8: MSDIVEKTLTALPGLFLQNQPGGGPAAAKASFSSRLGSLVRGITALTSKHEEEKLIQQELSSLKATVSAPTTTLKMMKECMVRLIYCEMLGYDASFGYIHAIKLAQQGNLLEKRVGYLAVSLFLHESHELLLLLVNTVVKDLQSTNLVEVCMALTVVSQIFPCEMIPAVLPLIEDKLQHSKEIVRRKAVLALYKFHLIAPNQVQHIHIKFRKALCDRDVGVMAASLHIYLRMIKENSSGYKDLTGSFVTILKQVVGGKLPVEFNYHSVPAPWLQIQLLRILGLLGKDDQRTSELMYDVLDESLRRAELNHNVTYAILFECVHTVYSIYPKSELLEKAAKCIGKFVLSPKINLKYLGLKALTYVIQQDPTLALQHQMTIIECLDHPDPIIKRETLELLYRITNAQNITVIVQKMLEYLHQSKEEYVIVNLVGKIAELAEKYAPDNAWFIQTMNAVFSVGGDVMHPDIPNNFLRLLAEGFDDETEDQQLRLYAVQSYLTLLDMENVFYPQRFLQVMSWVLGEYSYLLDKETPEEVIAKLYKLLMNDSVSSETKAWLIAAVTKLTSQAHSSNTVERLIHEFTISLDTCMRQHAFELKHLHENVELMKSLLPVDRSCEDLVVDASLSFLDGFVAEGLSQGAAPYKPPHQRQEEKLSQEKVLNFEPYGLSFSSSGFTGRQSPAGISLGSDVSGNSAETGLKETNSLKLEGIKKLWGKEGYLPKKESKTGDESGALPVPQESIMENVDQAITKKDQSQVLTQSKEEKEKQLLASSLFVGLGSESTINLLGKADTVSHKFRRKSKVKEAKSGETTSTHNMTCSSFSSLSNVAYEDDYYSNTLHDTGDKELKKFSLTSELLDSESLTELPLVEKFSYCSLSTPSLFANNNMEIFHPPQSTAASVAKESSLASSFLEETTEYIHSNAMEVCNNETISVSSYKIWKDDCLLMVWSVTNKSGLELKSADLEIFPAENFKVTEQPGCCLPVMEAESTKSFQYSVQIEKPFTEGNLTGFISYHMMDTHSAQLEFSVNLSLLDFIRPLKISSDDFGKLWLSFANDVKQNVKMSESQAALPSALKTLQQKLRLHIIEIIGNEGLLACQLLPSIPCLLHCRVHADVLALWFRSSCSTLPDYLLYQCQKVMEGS
UniProt P08758: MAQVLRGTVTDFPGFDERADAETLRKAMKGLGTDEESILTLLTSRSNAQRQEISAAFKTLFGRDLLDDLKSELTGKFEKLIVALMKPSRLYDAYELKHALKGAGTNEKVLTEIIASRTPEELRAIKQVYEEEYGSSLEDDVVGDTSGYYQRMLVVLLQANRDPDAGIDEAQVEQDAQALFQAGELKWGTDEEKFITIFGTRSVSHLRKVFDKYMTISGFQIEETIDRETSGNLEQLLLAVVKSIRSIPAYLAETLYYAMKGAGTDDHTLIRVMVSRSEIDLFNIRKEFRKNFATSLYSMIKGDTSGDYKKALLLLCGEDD
UniProt P20073: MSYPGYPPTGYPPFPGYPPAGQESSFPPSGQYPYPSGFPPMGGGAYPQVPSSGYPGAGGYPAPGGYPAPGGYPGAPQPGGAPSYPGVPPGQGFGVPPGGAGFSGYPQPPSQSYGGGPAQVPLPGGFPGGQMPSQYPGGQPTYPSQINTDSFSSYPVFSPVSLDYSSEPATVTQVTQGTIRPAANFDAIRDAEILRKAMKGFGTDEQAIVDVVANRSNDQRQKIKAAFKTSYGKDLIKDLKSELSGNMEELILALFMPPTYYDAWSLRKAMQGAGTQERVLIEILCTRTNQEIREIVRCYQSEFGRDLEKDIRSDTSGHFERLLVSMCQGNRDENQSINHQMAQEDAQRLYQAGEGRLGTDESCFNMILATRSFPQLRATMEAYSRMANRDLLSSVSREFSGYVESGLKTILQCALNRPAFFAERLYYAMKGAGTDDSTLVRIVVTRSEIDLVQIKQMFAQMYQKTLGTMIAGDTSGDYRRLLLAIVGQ
UniProt O14617: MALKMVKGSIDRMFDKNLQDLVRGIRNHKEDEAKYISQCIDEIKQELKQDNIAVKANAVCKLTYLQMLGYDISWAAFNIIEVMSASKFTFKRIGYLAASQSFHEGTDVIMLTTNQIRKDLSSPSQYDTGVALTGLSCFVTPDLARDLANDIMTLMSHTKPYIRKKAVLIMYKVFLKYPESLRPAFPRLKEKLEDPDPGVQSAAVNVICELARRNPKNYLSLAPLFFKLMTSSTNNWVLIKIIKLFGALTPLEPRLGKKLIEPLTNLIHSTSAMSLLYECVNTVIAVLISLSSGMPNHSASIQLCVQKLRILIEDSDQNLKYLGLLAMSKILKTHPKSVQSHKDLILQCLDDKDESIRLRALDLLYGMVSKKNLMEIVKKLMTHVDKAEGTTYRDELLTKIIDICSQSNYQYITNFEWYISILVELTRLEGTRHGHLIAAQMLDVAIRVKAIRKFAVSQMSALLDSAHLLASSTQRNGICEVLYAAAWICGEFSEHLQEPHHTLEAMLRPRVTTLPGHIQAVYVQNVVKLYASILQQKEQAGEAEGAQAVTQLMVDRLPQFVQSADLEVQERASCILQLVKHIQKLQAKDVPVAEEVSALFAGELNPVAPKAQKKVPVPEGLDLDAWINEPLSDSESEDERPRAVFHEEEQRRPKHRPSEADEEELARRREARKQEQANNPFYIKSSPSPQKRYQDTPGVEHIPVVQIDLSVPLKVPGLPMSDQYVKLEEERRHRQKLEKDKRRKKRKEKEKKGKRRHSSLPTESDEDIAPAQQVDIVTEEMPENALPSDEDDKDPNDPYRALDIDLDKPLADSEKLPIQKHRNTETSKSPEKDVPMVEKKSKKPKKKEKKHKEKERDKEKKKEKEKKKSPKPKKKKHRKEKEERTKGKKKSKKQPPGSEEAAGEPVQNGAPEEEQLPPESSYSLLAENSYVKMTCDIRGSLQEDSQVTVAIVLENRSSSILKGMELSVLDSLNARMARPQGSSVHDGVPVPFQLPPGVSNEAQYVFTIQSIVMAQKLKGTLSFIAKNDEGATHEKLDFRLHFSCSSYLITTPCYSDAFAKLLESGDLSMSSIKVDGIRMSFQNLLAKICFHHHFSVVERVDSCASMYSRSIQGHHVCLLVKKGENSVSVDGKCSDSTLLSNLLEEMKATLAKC
UniProt O43488: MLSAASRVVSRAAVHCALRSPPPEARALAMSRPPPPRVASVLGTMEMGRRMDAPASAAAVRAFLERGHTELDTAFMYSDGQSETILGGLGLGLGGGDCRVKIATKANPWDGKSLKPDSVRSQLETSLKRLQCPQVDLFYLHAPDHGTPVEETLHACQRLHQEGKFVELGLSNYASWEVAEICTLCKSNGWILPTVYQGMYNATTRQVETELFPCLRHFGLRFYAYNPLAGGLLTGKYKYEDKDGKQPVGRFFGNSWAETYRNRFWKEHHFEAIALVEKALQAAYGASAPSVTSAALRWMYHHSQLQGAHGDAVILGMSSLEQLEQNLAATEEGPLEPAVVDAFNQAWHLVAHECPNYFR
UniProt P11310: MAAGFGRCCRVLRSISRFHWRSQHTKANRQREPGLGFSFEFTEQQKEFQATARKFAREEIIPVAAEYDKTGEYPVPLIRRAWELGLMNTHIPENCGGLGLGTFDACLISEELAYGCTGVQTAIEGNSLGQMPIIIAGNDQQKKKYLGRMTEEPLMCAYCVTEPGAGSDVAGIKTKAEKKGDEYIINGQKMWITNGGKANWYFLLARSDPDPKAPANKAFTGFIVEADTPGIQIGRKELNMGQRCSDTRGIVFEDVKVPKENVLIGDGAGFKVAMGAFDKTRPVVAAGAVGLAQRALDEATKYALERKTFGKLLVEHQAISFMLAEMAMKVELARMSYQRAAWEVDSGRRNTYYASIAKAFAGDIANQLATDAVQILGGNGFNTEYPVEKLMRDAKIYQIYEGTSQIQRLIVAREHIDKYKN
UniProt Q9BR61: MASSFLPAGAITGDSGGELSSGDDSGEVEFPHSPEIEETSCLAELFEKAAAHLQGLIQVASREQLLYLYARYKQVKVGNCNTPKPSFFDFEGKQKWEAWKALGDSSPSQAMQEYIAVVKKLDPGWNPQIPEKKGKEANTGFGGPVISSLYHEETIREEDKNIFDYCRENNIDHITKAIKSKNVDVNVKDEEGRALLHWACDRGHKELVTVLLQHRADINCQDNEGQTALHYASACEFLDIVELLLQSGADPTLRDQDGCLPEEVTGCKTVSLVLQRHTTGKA
UniProt Q6P6C2: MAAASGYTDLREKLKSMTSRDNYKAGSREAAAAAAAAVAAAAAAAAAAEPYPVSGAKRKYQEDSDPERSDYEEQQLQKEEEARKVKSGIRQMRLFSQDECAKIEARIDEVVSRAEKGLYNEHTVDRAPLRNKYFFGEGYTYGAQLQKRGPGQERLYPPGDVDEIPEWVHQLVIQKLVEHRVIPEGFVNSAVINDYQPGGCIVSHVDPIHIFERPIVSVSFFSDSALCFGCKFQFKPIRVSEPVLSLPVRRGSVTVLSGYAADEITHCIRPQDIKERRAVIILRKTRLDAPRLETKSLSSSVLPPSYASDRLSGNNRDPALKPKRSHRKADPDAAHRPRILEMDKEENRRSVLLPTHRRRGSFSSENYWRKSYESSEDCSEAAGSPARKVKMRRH
UniProt Q8N6T3: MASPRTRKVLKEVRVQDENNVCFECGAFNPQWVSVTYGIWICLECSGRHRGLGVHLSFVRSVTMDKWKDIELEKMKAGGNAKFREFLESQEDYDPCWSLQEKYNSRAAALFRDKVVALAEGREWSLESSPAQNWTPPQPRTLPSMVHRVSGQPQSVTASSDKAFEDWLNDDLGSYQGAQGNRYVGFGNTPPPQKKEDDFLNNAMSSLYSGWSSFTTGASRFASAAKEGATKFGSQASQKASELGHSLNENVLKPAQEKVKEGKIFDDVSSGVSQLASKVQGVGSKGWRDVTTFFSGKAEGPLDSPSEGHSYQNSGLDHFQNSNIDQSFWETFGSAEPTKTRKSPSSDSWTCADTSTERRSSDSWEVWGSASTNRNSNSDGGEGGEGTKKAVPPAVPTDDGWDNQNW

Compound: Nc1nc2c(ncn2[C@@H]2O[C@H](COP(=O)(O)OP(=O)(O)OP(=O)(O)O)[C@@H](O)[C@H]2O)c(=O)[nH]1
Experiment: dose-dependent thermal stabilisation call (2D-TPP, DLPTP, 10% FDR) (binary (1 = stabilised)); higher = stabilised by the compound
Settings: system: Jurkat gel-filtered lysate; concentration range 1-500 µM

## ALDOA (UniProt P04075)
  dose-dependent thermal stabilisation call: inactive: 0

## ABAT (UniProt P80404)
  dose-dependent thermal stabilisation call: inactive: 0

## ARHGAP15 (UniProt Q53QZ3)
  dose-dependent thermal stabilisation call: active: 1

## ANKRD11 (UniProt Q6UB99)
  dose-dependent thermal stabilisation call: inactive: 0

## ACSF3 (UniProt Q4G176)
  dose-dependent thermal stabilisation call: active: 1

## APOL2 (UniProt Q9BQE5)
  dose-dependent thermal stabilisation call: inactive: 0

## AP4E1 (UniProt Q9UPM8)
  dose-dependent thermal stabilisation call: inactive: 0

## ANXA5 (UniProt P08758)
  dose-dependent thermal stabilisation call: inactive: 0

## AIFM1 (UniProt O95831)
  dose-dependent thermal stabilisation call: inactive: 0

## ANXA7 (UniProt P20073)
  dose-dependent thermal stabilisation call: inactive: 0

## AP3D1 (UniProt O14617)
  dose-dependent thermal stabilisation call: inactive: 0

## AGAP2 (UniProt Q99490)
  dose-dependent thermal stabilisation call: inactive: 0

## AKR7A2 (UniProt O43488)
  dose-dependent thermal stabilisation call: active: 1

## AMMECR1 (UniProt Q9Y4X0)
  dose-dependent thermal stabilisation call: inactive: 0

## ACADM (UniProt P11310)
  dose-dependent thermal stabilisation call: active: 1

## AEBP2 (UniProt Q6ZN18)
  dose-dependent thermal stabilisation call: active: 1

## AKR1A1 (UniProt P14550)
  dose-dependent thermal stabilisation call: active: 1

## ABL1 (UniProt P00519)
  dose-dependent thermal stabilisation call: inactive: 0

## ACBD6 (UniProt Q9BR61)
  dose-dependent thermal stabilisation call: inactive: 0

## ARAP1 (UniProt Q96P48)
  dose-dependent thermal stabilisation call: inactive: 0

## ALMS1 (UniProt Q8TCU4)
  dose-dependent thermal stabilisation call: inactive: 0

## APEX1 (UniProt P27695)
  dose-dependent thermal stabilisation call: inactive: 0

## AKR1C1 (UniProt Q04828)
  dose-dependent thermal stabilisation call: inactive: 0

## AKR1B1 (UniProt P15121)
  dose-dependent thermal stabilisation call: inactive: 0

## ALKBH5 (UniProt Q6P6C2)
  dose-dependent thermal stabilisation call: inactive: 0

## ADD1 (UniProt P35611)
  dose-dependent thermal stabilisation call: inactive: 0

## ARFGAP1 (UniProt Q8N6T3)
  dose-dependent thermal stabilisation call: inactive: 0
